Library screening results

Sequences of proteins named here, by UniProt entry; tags and fusion partners are left off.
UniProt E9BF75, entry or part of it: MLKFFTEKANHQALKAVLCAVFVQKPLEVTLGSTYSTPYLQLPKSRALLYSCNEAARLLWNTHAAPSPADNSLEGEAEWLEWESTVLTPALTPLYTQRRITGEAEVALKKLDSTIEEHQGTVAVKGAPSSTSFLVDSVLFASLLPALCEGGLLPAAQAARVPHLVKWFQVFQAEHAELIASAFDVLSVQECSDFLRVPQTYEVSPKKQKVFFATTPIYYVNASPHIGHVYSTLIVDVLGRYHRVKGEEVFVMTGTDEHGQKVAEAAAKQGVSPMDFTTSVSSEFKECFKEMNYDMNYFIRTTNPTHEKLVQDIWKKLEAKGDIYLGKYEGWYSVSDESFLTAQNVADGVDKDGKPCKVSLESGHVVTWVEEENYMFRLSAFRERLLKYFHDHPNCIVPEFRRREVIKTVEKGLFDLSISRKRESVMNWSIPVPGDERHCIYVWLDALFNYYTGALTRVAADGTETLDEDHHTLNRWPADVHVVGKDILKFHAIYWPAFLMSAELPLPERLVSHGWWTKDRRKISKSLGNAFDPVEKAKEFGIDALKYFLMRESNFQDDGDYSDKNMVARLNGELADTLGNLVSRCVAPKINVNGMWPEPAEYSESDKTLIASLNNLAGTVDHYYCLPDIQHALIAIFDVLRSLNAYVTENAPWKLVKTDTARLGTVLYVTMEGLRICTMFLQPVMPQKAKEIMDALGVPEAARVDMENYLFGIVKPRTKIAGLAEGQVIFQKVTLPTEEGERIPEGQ

All values are in %. How 0% and 100% were set is not recorded. Most values in the screen are low, and negative values occur. The compounds are a random part of those screened. A dash means the value is not listed here; it may have been measured.

LdMetRS: 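Primary screen of methionyl-tRNA synthetase; the read-out is not stated. Target: Methionyl-tRNA synthetase (putative), Leishmania donovani (UniProt E9BF75). The test concentration is not given. The values are filed as inhibition. About 68,000 compounds were tested under these conditions; 0.035% (about 24) showed 50% or more at least once.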
Mtb heat-shock: 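Assay on Mycobacterium tuberculosis, filed only as a heat shock assay from Cornell; the read-out is not stated. The concentration is filed as 10 mM, unlikely as a test dose, so the dose is not known. Direction is inferred from retests: higher values go with stronger inhibition. Size under these conditions: about 69,000 compounds, about 930 of them at 50% or above in at least one test.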

structure,LdMetRS,Mtb heat-shock
N#Cc1cnc(NCc2cccc(C(=O)N3CCCC3)c2)c(Cl)c1,14.97%,9.212%
CCn1c(CN2CCCC2)nnc1C1CCN(Cc2ccncc2)CC1,12.9%,-23.98%
COCc1nnc(C(=O)N2CCC(N3CCCCC3)CC2)o1,16.33%,-36.36%
N#Cc1cccc(C(=O)N2CCc3c(COCC4CC4)cncc3C2)c1,10.03%,-
Cc1ccc(CN(C)C(=O)CNC(=O)N2CCc3ccccc3C2)o1,1.832%,13.61%
COC(=O)c1ccc(OCC(=O)N(C)Cc2ccsc2)c(OC)c1,9.699%,2.251%
N#Cc1c(Cl)nsc1NCc1ccc(N2CCCC(C(N)=O)C2)cc1 (configuration not stated),13.4%,-4.407%
c1cnn(CCNCc2csc(-c3ccc4c(c3)OCO4)n2)c1,1.795%,65.17%
COc1ccc(OC)c(-c2nc(CN(C)Cc3nonc3C)c(C)o2)c1,5.621%,-6.199%
O=S(=O)(c1cccs1)N1CCCn2cnc(CN3CCCC3)c2C1,5.439%,-
CN(C)c1cc(CNC(=O)c2ccc(=O)[nH]n2)ccn1,10.42%,-7.788%
O=C(c1cccc(-n2cccn2)c1)N1CCOC(CCO)C1 (configuration not stated),2.821%,2.398%
Cc1ccc(-n2nnc(C(=O)NCCS(N)(=O)=O)c2C2CC2)cc1,6.593%,4.144%
CC(=O)N1CCCn2nc(CNS(=O)(=O)N(C)C(C)C)cc2C1,16.21%,16.04%
O=C(c1ccn(-c2ccccc2Cl)n1)N1CCCSCC1,18.1%,10.19%
Cc1cccc(CN2CCC3(CCCN(Cc4cnn(C)c4)C3)C2)n1.O=C(O)C(F)(F)F.O=C(O)C(F)(F)F (configuration not stated),-,-8.309%
CCOc1ncccc1CNC(=O)CN1CCCCCC1=O,2.594%,-3.615%
CC(C)c1nc(CN(C)C(=O)CCS(=O)(=O)c2ccccc2)no1,14.54%,26.33%
CC(=O)N1CC(C(=O)NCCc2ncc(C)s2)C1,12.11%,-0.2915%
COc1cccc(CNC(=O)c2nc3c(s2)CCN(C(C)=O)CC3)c1,9.95%,5.894%
Cc1nc(CC(=O)N2CCCC2c2nc(C(C)C)no2)cs1 (configuration not stated),14.18%,-3.127%
[H][C@]12CC[C@]([H])(CN(c3cnccn3)C1)N(C(=O)c1csc(C)c1CC)C2,-,-16.87%
CC(C)N1CC(C(=O)N2CCc3c(nc(CC4CC4)[nH]c3=O)C2)CC1=O (configuration not stated),5.108%,-0.04469%
Cn1cc(CN2CCC3(CC2)CC(Nc2nccs2)CO3)cn1 (configuration not stated),1.493%,-
C1CN(CC2CCOCC2)Cc2c(COCC3CC3)nnn2C1,9.589%,-
CN(C)CC(C)(O)CNC(=O)Nc1sc2ccccc2c1Cl (configuration not stated),11.08%,26.35%
O=C([C@H]1CCCO1)N1CC[C@H](O)[C@@H]1Cc1cccnc1,18.6%,-1.235%
Cc1csc(CN2CCn3c(COc4cccnc4)cnc3C2C)n1.O=C(O)C(F)(F)F.O=C(O)C(F)(F)F (configuration not stated),-,18.26%
COCCN1CCc2ncnc(N(C)C)c2CC1,12.99%,-3.59%
O=C(NCCc1ccn(-c2ccc(F)cc2)n1)C1CCCOC1 (configuration not stated),13.04%,-10.73%
CC(C)(C)c1nnc(CN2CCCC2Cn2cncn2)o1 (configuration not stated),19.2%,-1.188%
Cn1cc(C2CC(=O)NC23CCN(C(=O)c2ccc[nH]2)CC3)cn1 (configuration not stated),-5.263%,-18.31%
COc1cc(Cl)c(NC(=O)NCCn2cccc2)cc1OC,4.57%,-26.43%
N#Cc1cnn(C(=O)CCCOc2ccccc2Cl)c1N,4.178%,-16.14%
CC(=O)N1CCC(c2nccnc2-c2ccc(F)c(F)c2)CC1,17.71%,-1.825%
CCn1c(CC2CCN(C(=O)c3cc(C(C)C)nn3C)CC2)n[nH]c1=O,6.812%,-1.57%
Cc1ccc(Oc2ncccc2C(=O)N(C)CCCN(C)C)cc1,7.5%,20.11%
Clc1ccccc1C1(c2ccnc(-c3ccncc3)n2)CCNCC1,12.6%,9.336%
O=C(CN1CCOC(Cn2cccn2)C1)NCCc1cccs1 (configuration not stated),21.9%,-25.41%
COCCN1CCCC(CN(C)c2nc3c(s2)c(C)nn3C)C1 (configuration not stated),10.26%,-21.77%
COC(=O)CCC(=O)N1CCC2(CN(Cc3ccccc3)C2)C1,5.076%,-39.73%
CC1N(c2cnn(C)c2)C(=O)COC12CCN(CC1CC1)CC2 (configuration not stated),3.846%,-
Cc1ccc(OCCSC2=NCCN2)cc1,8.533%,-
O=C(CN1CCN(c2ccnc3c(F)ccc(F)c23)CC1)NC1CC1,11.87%,-10.09%
CCc1cccc(NC(=O)CCC(=O)N(C)Cc2nc(C)c[nH]2)c1,16.17%,-35.16%
O=C1COC2(CCN(Cc3ccco3)CC2)CN1Cc1cccnc1,18.91%,-0.8425%
CC(C(=O)Nc1cccc(Cl)c1SC(F)F)S(C)(=O)=O (configuration not stated),19.11%,4.838%
O=C(Cc1ccccn1)N1CC[C@]2(C[C@@H](Oc3ncccc3F)CO2)C1.O=C(O)C(F)(F)F.O=C(O)C(F)(F)F,-,-4.932%
CCn1c(C2CCN(C(=O)c3ccc4sc(C)nc4c3)CC2)n[nH]c1=O,14.63%,9.538%
COCC(=O)N1CCCC2(CCN(CCN3CCCC3)CC2)C1,-1.754%,-
Cc1cc(C(=O)N2CCC(c3nccn3Cc3ccccn3)CC2)no1,9.365%,-15.75%
[H][C@]12CCN(C(=O)c3ccno3)C[C@@]1([H])OCCN(C1CCOCC1)C2,-,-10.28%
O=C1CSC(C(F)(F)F)c2c(O)nn(C3CCCC3)c2N1 (configuration not stated),9.329%,-17.01%
O=S(=O)(c1cccc(F)c1)N1CCCCC1c1ccn[nH]1 (configuration not stated),6.824%,-10.44%
CN(C)C(CNCc1nc(-c2ccsc2)no1)c1ccco1 (configuration not stated),8.807%,6.886%
COCCNC1(c2ccc(Cl)cc2)CCOCC1,-5.459%,20.91%
COc1ccc(-c2nc(C#N)c(N(C)C)o2)cc1S(=O)(=O)N1CCCC1,7.008%,-11.14%
CCc1noc(C2CCCCN2C(=O)c2cccnc2)n1 (configuration not stated),-19.85%,-6.994%
O=C(Cc1cccnc1)N1CC(Cc2nccc3cc[nH]c23)C1,9.574%,1.806%

The values are deposited in ChEMBL (CHEMBL3988442, “University of Dundee, Small-Polar-MMV Screening Library” (2021)).